Results: PMC6925144, “A prospective compound screening contest identified broader inhibitors for Sirtuin 1” (Scientific Reports, 2019)
The full ranking holds about 3,200 compounds; the median of “TSA(without NAD+) / Primary screening (TSA) / delta Tm (K)” is about -0.07, and the highest 2% start at about 0.37. This is one part of the list.

By UniProt entry, the sequences of proteins in these tests, tags left out. Residues count along the entry.
UniProt Q96EB6, 2-747 limits assumed: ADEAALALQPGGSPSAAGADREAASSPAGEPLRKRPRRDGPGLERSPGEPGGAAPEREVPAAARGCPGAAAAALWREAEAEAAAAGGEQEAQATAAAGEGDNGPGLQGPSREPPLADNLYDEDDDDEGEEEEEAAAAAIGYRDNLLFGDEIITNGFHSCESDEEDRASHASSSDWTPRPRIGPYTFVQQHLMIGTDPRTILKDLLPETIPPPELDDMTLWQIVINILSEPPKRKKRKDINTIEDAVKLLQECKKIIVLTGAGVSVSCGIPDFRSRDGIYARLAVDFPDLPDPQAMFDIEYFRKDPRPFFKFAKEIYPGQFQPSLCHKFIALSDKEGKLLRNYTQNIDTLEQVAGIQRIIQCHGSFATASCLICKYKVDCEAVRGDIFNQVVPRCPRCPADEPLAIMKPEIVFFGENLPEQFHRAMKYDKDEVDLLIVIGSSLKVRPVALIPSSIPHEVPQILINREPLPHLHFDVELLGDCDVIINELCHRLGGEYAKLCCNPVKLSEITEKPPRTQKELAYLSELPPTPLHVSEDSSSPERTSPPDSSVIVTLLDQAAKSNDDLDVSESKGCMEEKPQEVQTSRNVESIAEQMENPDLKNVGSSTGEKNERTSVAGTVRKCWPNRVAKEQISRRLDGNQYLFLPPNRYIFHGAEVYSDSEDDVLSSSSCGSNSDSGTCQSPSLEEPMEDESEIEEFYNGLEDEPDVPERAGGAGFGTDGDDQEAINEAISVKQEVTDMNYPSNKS

target: NAD-dependent deacetylase Sirtuin 1 (human, UniProt Q96EB6); assay: primary screen, delta tm; parameters: single well (n = 1); conditions: 10 µM
Summary of the method: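 Thermal shift of Sirtuin 1 measured without NAD+, compound at 10 µM (n = 1); value is ΔTm, with hits defined as ΔTm > 0.45 K or < −1.5 K. Hits retested at 5, 10, 20 µM (n = 4) and counterscreened on bovine carbonic anhydrase and ABL1 SH2 domain.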

Row | Structure (SMILES) | TSA(without NAD+) / Primary screening (TSA) / delta Tm (K)
1 | Cc1cccc(-c2ccc(C(=O)N3CCc4ccccc4C3)c(=O)[nH]2)c1 | 0.09 K
2 | COc1ccc2[nH]c3c(N(C)C)ncnc3c2c1 | -0.11 K
3 | Cc1ccc2oc(=N)c3c(N)nc(-c4ccc5c(c4)OCO5)cc3c2c1 | -0.04 K
4 | CCC(=O)c1ccc(OCC(=O)NNC(=O)c2cc(C)oc2C)cc1 | -0.04 K
5 | Cc1cc(C)cc(OCC(=O)N2Cc3ccccc3CC2C(=O)O)c1 (centres unmarked) | -0.03 K
6 | CCc1ccc(C(CO)NCc2cn3cc(Cl)ccc3n2)cc1 (centres unmarked) | -0.04 K
7 | Cc1ccc2c(COc3ncnc4sc5c(c34)CCCC5)cc(=O)oc2c1 | 0.19 K
8 | C=CCOc1ccc(C2C(C(=O)c3ccccc3)=C(O)C(=O)N2CCCN2CCOCC2)cc1 (centres unmarked) | 0.03 K
9 | O=C(O)C1CC(=O)N(c2cccc(-c3nc(C4CC4)no3)c2)C1 (centres unmarked) | 0.03 K
10 | CCCCNC(=O)CN1CCN(c2ncnc3cc(Cl)ccc23)CC1 | -0.15 K
11 | CN(c1cnccn1)S(=O)(=O)c1ccc2c(c1)C(C)(C)C(=O)N2 | -0.15 K
12 | Cc1nc(N2CCC(C(N)=O)CC2)c2c3c(sc2n1)CCCC3 | 0.56 K
13 | COc1ccccc1C(=O)NC(CCSC)C(=O)NCCN1C(=O)S/C(=C/c2ccc3c(c2)OCO3)C1=O (centres unmarked) | -0.04 K
14 | Cc1ccc2nc(-c3ccc(NC(=O)C(C)Cl)cc3)sc2c1 (centres unmarked) | 0.22 K
15 | Oc1ccccc1N1CCN(CCCc2cncc(F)c2)CC1 | -0.08 K
16 | COCC(C)C(=O)O (centres unmarked) | -0.13 K
17 | NC(=O)c1cnc(NC(=O)Cc2cc3c(ccc4ccccc43)o2)s1 | -0.03 K
18 | CCCCn1c(COc2ccc(N(C)S(=O)(=O)c3ccc(C)cc3)cc2)nc2cc(S(N)(=O)=O)ccc21 | -0.14 K
19 | C=CCNC(=O)CN1CCN(c2ncnc3sc4c(c23)CCC4)CC1 | 0.08 K
20 | CC(C)(C)OC(=O)N1CCC(CC(=O)Nc2ccccc2-c2nc3ccccc3[nH]2)CC1 | 0.02 K
21 | O=C(COC(=O)C(Cc1ccccc1)NC(=O)c1ccccc1)NCC12CC3CC(CC(C3)C1)C2 (centres unmarked) | 0.03 K
22 | NC(=O)C(NC(=O)COc1ccc(C(=O)c2ccccc2)cc1)C(N)=O | 0.06 K
23 | OC1CCCCC1Nc1cnc2ccccc2n1 (centres unmarked) | -0.07 K

Some values from the results shown.
Entry of `CC(C)(C)OC(=O)N1CCC(CC(=O)Nc2ccccc2-c2nc3ccccc3[nH]2)CC1` under TSA(without NAD+) / Primary screening (TSA) / delta Tm (K): 0.02 K
Entry of `NC(=O)C(NC(=O)COc1ccc(C(=O)c2ccccc2)cc1)C(N)=O` under TSA(without NAD+) / Primary screening (TSA) / delta Tm (K): 0.06 K

Continuation:

Row | Structure (SMILES) | TSA(without NAD+) / Primary screening (TSA) / delta Tm (K)
24 | NC(=S)c1ccc(C(=O)NC2CCSc3c(F)cccc32)cc1 (centres unmarked) | -0.23 K
25 | Cc1nc(-c2ccccn2)nc(N2CCCC(C(N)=O)C2)c1C (centres unmarked) | -0.12 K
26 | COCCN(C)Cc1ccc(-c2cccc(F)c2C)o1 | -0.24 K
27 | Cc1ccc(-c2nn(-c3ccccc3)cc2C=C2C(=O)NC(=O)NC2=O)o1 | -0.33 K
28 | c1ccc(-c2[nH]c3ccccc3c2-c2ccccc2)cc1 | 0.45 K
29 | COc1cccc(-c2noc(COC(=O)C3CCCN3C(=O)C34CC5CC(CC(C5)C3)C4)n2)c1 (centres unmarked) | 0.08 K
30 | Cc1ccc2nc(C)c(C(=O)Nc3cccc(-c4nnn[nH]4)c3)cc2c1 | -0.12 K
31 | CCOCC(O)CN (centres unmarked) | -0.12 K
32 | CC1CCc2[nH]c3ccc(C(=O)Nc4cccc(S(=O)(=O)N(C)c5ccccc5)c4)cc3c2C1 (centres unmarked) | 0.42 K
33 | O=C(NNC1c2ccccc2-c2ccccc21)C1COc2ccccc2O1 (centres unmarked) | 0.09 K
34 | Cc1cc(=O)oc2cc(OCC(=O)NC3CCC4CCCCC4C3)ccc12 (centres unmarked) | -0.08 K
35 | CC(=O)OCC1OC(COc2ccc(C(=O)Cc3csc(-c4ccccc4)n3)c(O)c2)C(OC(C)=O)C(OC(C)=O)C1OC(C)=O (centres unmarked) | -0.03 K
36 | Cc1ccccc1N1C(=O)c2ccc(C(=O)NCC34CC5CC(CC(C5)C3)C4)cc2C1=O | 0.07 K
37 | Cc1ccc(NC(=O)CN2CSCC2=O)c(OCCN(C)C)c1 | -0.15 K
38 | O=C(COC(=O)c1cccc(NS(=O)(=O)/C=C/c2ccccc2)c1)NC12CC3CC(CC(C3)C1)C2 | 0.02 K
39 | NC(=O)c1csc(C(=O)NCc2ccn(-c3ccccc3F)n2)c1 | -0.12 K
40 | Cc1ccc(Oc2ccc(NC(=O)c3cncc(Br)c3)cc2)cc1 | -0.02 K
41 | Cc1nc2c3ccccc3nc(SCC(=O)Nc3cc(C(F)(F)F)ccc3-n3cncn3)n2n1 | -0.23 K
42 | Cc1cc2occ(CC(=O)N3CCC(C(N)=O)C3)c2cc1C(C)C (centres unmarked) | -0.07 K
43 | COc1ccc(C(=O)C2=C(O)C(=O)N(CCCN3CCOCC3)C2c2ccc(Cl)cc2)cc1C (centres unmarked) | 0.08 K
44 | COC(=O)CSc1nc2ccc(OC)cc2[nH]1 | -0.12 K
45 | CCOC(C)CN (centres unmarked) | -0.32 K
46 | NC(=O)c1ccc(N2CCCC2)c(NC(=O)CCNC(=O)Cc2ccccc2)c1 | -0.11 K

Among those listed so far, 13 have four or more nitrogen atoms.
Row | Structure (SMILES) | TSA(without NAD+) / Primary screening (TSA) / delta Tm (K)
2 | COc1ccc2[nH]c3c(N(C)C)ncnc3c2c1 | -0.11 K
10 | CCCCNC(=O)CN1CCN(c2ncnc3cc(Cl)ccc23)CC1 | -0.15 K
11 | CN(c1cnccn1)S(=O)(=O)c1ccc2c(c1)C(C)(C)C(=O)N2 | -0.15 K
12 | Cc1nc(N2CCC(C(N)=O)CC2)c2c3c(sc2n1)CCCC3 | 0.56 K
18 | CCCCn1c(COc2ccc(N(C)S(=O)(=O)c3ccc(C)cc3)cc2)nc2cc(S(N)(=O)=O)ccc21 | -0.14 K
19 | C=CCNC(=O)CN1CCN(c2ncnc3sc4c(c23)CCC4)CC1 | 0.08 K
20 | CC(C)(C)OC(=O)N1CCC(CC(=O)Nc2ccccc2-c2nc3ccccc3[nH]2)CC1 | 0.02 K
25 | Cc1nc(-c2ccccn2)nc(N2CCCC(C(N)=O)C2)c1C (centres unmarked) | -0.12 K
27 | Cc1ccc(-c2nn(-c3ccccc3)cc2C=C2C(=O)NC(=O)NC2=O)o1 | -0.33 K
30 | Cc1ccc2nc(C)c(C(=O)Nc3cccc(-c4nnn[nH]4)c3)cc2c1 | -0.12 K
39 | NC(=O)c1csc(C(=O)NCc2ccn(-c3ccccc3F)n2)c1 | -0.12 K
41 | Cc1nc2c3ccccc3nc(SCC(=O)Nc3cc(C(F)(F)F)ccc3-n3cncn3)n2n1 | -0.23 K
46 | NC(=O)c1ccc(N2CCCC2)c(NC(=O)CCNC(=O)Cc2ccccc2)c1 | -0.11 K

The list continues:

Row | Structure (SMILES) | TSA(without NAD+) / Primary screening (TSA) / delta Tm (K)
47 | NC(=O)c1ccc(F)c(NC(=O)NCc2ccc(N3CCCCCC3)nc2)c1 | -0.08 K
48 | COCCNc1oc2c(c1-c1ccccc1[N+](=O)[O-])c(=O)oc1ccc(C)cc12 | -0.23 K
49 | COc1ccc(N2C(=O)/C(=C/NNC(=O)C34CC5CC(CC(C5)C3)C4)c3ccccc3C2=O)cc1 | 0.43 K
50 | CC1CCCCN1CCCCNC(=O)c1ccc2c(c1)C(=O)N(CCc1ccccc1)C2=O (centres unmarked) | 0.16 K
51 | O=C(O)CN1C(=O)CSC1=S | 0.27 K
52 | Cc1ccc(N(C)S(=O)(=O)c2cccc(C(=O)NCCc3c[nH]c4ccccc34)c2)cc1 | 0.23 K
53 | COc1ccc(NC(=O)C2=COCCO2)cc1S(=O)(=O)N1CCOCC1 | -0.13 K
54 | O=C(CN1CCc2ccccc21)Nc1cnc2ccccc2c1 | -0.04 K
55 | O=[N+]([O-])c1ccc(/C=C/C2=NN(c3ccccc3)C(c3ccco3)C2)o1 (centres unmarked) | -0.03 K
56 | O[C@H]1CCN(c2ncnc3ccsc23)C1 | 0.07 K
57 | CS(=O)(=O)Nc1cccc(OCCNC(=O)C2=NN(Cc3ccccc3)C(=O)CC2)c1 | -0.01 K
58 | Cc1cc(=O)oc2cc(OCC(=O)Nc3ccc4ccccc4c3)ccc12 | 0.19 K
59 | OC1CN(c2ncnc3c2oc2ccccc23)C1 | 0.05 K
60 | O=C(CCc1cccnc1)NCCCc1nc2ccccc2[nH]1 | -0.02 K
61 | COc1cc(CNC(=O)CCc2c(C)nc(N3CCOCC3)[nH]c2=O)ccc1OCc1ccccc1 | -0.23 K
62 | Cc1cc(C(=O)COC(=O)c2cc(S(=O)(=O)N3CCCCC3)ccc2N2CCCCC2)c(C)n1CC1CCCO1 (centres unmarked) | 0.02 K
63 | Nc1ccc(NC=C2C(=O)CC(c3ccccc3)CC2=O)cc1 (centres unmarked) | 0.07 K
64 | NC(=O)c1ccc(COC(=O)c2ccc(S(N)(=O)=O)cc2)cc1 | -0.11 K
65 | O=C(Cc1noc2ccccc12)NCc1ccc(N2CCCC2=O)cc1 | 0.02 K
66 | NS(=O)(=O)CCNc1ncnc2ccsc12 | -0.07 K
67 | C#C[C@]1(O)CC[C@H]2[C@@H]3CCC4=CC(=O)CC[C@@H]4[C@H]3CC[C@@]21CC | -0.04 K
68 | Cc1nnc(CNC(=O)c2cc(-c3ccccc3)nc3c(C(N)=O)ncn23)s1 | -0.04 K
69 | NC(=O)c1ccc(C(=O)NC2CCN(C(=O)NC3CCCCC3)CC2)cc1 | -0.17 K

Row | Structure (SMILES) | TSA(without NAD+) / Primary screening (TSA) / delta Tm (K)
70 | O=C(CC12CC3CC(CC(C3)C1)C2)NNC(=O)[C@H](Cc1ccccc1)N1C(=O)c2ccccc2C1=O | 0.12 K
71 | Cc1nn(-c2ccccc2)c(C)c1NC(=O)COC(=O)c1ccc2[nH]c(C)c(C)c2c1 | -0.02 K
72 | Cc1nc2cc(C(=O)NCc3nnc4ccccn34)ccc2n1-c1ccccc1 | -0.18 K
73 | CCc1nnc(NC(=O)Nc2ccc(O)cc2C)s1 | -0.15 K
74 | CC(C)[C@H](NC(=O)Cc1cccc2ccccc12)C(=O)OCC(=O)NC12CC3CC(CC(C3)C1)C2 | -0.03 K
75 | CNC(=O)c1ccc2[nH]c3c(c2c1)CCCC3 | -0.18 K
76 | CC(OC(=O)Cc1coc2cc(O)ccc12)C(=O)Nc1ccc(C(N)=O)cc1 (centres unmarked) | -0.41 K
77 | Cc1ccc(C(=O)NNC(=O)c2ccc(S(=O)(=O)N3CCCC3)cc2)cc1 | -0.13 K
78 | CS/C(=N/S(=O)(=O)c1cccs1)NS(=O)(=O)c1ccc(N)cc1 | -0.11 K
79 | N#Cc1ccc(CN2CCC(CCc3ccc(O)cc3)CC2)c(F)c1 | -0.11 K
80 | CC(OC(=O)c1c2ccccc2cc2ccccc12)C(=O)c1ccccc1 (centres unmarked) | -0.14 K
81 | O=C(CCc1nc2ccccc2s1)Nc1ccc(N2CCN(Cc3ccccc3)CC2)cc1 | 0.17 K
82 | NC(=O)c1ccc(S(=O)(=O)NNC(=O)c2cc3c(s2)CCCCC3)cc1 | -0.03 K
83 | CN(c1ccccc1)S(=O)(=O)c1cccc(NC(=O)CCc2c[nH]c3ccccc23)c1 | 0.38 K
84 | O=C(Nc1cccc(S(=O)(=O)NCc2ccco2)c1)c1ccc(COc2ccccc2)o1 | -0.01 K
85 | COc1ccc(CCNC(=O)c2ccccc2NS(=O)(=O)CC23CCC(CC2=O)C3(C)C)cc1 (centres unmarked) | 0.25 K
86 | O=C(NCc1ccccc1)/C(=C/c1ccc(OCc2ccccc2)cc1)c1nc2ccccc2[nH]1 | 0.12 K
87 | CC(Sc1nc(N)nc(N)n1)C(=O)N1CCOCC1 (centres unmarked) | -0.27 K
88 | CCN(CC)C(CNC(=O)CNC(=O)c1ccoc1C)c1ccco1 (centres unmarked) | 0.02 K
89 | CCN(CC(=O)OC(C)C(=O)NC(N)=O)Cc1ccc(Cl)cc1 (centres unmarked) | -0.03 K
